Measured values reported in the supplement of paper PMC10849652.
The other results are listed elsewhere or left out.

Amino acid sequences for entries named in this document (tags omitted). A change or cut given only in a name is not applied to a line headed by its entry.
UniProt P27816: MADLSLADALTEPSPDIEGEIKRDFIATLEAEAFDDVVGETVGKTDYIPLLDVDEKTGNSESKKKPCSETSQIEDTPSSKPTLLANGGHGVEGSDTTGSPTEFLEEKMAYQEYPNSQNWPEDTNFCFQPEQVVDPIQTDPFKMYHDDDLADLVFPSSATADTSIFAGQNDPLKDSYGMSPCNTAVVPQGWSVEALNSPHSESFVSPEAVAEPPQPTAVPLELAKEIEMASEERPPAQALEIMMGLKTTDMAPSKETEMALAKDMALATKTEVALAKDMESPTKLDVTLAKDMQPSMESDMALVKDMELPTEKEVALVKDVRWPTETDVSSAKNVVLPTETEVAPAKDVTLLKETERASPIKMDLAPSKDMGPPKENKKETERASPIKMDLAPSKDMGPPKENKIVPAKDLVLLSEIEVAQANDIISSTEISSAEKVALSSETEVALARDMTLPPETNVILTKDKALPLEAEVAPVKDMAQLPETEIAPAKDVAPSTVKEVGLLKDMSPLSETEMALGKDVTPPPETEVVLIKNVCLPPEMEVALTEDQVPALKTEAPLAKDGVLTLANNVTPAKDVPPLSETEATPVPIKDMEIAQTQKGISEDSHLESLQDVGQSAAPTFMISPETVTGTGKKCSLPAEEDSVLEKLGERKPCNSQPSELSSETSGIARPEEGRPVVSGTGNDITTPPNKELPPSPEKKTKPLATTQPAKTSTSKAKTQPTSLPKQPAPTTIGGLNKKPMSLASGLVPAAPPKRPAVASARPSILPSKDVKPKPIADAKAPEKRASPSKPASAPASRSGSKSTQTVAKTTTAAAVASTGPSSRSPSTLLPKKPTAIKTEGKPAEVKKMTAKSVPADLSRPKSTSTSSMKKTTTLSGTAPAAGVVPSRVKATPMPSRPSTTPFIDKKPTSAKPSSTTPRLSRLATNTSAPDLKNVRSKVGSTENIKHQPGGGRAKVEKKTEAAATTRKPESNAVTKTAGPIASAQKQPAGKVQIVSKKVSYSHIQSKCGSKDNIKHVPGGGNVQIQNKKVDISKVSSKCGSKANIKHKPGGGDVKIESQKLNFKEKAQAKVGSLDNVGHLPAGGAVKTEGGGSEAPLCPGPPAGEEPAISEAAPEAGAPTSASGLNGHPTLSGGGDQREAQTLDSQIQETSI
UniProt Q16644, whole entry, looked up: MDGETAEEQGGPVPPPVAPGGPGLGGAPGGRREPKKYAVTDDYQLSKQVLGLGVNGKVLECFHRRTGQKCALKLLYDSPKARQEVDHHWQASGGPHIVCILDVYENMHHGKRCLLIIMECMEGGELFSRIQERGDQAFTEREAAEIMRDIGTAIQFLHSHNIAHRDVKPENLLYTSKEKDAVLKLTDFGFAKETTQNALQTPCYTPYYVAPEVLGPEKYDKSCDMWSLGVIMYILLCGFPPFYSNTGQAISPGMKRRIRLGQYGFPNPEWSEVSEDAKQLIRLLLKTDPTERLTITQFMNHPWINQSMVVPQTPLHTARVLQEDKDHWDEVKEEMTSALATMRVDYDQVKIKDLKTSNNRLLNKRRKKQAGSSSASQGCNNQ
UniProt Q8IW41: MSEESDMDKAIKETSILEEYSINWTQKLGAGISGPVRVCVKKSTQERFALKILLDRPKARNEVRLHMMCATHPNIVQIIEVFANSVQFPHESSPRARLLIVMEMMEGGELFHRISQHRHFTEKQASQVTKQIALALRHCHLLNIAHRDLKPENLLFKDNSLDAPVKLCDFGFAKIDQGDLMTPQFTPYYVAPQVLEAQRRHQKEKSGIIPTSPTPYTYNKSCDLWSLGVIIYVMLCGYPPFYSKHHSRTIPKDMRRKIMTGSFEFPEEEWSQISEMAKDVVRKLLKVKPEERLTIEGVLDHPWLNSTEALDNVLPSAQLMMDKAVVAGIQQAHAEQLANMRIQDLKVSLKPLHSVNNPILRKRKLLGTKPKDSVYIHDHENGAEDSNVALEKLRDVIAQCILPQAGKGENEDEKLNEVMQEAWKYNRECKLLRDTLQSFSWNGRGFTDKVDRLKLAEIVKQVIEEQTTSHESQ
UniProt Q9NU23: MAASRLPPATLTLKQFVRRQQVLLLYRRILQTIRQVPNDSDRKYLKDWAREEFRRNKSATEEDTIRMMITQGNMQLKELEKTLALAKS
UniProt O15479: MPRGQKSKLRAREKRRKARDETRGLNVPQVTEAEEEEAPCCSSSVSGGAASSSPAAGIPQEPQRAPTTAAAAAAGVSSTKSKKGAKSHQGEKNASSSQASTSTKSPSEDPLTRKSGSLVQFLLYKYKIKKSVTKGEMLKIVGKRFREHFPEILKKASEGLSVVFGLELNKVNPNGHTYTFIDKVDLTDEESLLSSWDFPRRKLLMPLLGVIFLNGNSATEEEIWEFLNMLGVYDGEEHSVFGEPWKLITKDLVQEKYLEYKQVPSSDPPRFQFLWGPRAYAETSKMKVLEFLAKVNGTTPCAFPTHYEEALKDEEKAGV
UniProt Q9H063: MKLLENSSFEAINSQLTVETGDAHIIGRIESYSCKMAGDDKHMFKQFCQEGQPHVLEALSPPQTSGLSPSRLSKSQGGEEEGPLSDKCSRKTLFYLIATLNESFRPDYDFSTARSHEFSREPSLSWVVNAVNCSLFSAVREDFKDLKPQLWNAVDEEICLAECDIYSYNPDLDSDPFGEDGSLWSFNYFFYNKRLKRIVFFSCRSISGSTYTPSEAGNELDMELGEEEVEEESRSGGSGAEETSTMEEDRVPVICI
UniProt P46821: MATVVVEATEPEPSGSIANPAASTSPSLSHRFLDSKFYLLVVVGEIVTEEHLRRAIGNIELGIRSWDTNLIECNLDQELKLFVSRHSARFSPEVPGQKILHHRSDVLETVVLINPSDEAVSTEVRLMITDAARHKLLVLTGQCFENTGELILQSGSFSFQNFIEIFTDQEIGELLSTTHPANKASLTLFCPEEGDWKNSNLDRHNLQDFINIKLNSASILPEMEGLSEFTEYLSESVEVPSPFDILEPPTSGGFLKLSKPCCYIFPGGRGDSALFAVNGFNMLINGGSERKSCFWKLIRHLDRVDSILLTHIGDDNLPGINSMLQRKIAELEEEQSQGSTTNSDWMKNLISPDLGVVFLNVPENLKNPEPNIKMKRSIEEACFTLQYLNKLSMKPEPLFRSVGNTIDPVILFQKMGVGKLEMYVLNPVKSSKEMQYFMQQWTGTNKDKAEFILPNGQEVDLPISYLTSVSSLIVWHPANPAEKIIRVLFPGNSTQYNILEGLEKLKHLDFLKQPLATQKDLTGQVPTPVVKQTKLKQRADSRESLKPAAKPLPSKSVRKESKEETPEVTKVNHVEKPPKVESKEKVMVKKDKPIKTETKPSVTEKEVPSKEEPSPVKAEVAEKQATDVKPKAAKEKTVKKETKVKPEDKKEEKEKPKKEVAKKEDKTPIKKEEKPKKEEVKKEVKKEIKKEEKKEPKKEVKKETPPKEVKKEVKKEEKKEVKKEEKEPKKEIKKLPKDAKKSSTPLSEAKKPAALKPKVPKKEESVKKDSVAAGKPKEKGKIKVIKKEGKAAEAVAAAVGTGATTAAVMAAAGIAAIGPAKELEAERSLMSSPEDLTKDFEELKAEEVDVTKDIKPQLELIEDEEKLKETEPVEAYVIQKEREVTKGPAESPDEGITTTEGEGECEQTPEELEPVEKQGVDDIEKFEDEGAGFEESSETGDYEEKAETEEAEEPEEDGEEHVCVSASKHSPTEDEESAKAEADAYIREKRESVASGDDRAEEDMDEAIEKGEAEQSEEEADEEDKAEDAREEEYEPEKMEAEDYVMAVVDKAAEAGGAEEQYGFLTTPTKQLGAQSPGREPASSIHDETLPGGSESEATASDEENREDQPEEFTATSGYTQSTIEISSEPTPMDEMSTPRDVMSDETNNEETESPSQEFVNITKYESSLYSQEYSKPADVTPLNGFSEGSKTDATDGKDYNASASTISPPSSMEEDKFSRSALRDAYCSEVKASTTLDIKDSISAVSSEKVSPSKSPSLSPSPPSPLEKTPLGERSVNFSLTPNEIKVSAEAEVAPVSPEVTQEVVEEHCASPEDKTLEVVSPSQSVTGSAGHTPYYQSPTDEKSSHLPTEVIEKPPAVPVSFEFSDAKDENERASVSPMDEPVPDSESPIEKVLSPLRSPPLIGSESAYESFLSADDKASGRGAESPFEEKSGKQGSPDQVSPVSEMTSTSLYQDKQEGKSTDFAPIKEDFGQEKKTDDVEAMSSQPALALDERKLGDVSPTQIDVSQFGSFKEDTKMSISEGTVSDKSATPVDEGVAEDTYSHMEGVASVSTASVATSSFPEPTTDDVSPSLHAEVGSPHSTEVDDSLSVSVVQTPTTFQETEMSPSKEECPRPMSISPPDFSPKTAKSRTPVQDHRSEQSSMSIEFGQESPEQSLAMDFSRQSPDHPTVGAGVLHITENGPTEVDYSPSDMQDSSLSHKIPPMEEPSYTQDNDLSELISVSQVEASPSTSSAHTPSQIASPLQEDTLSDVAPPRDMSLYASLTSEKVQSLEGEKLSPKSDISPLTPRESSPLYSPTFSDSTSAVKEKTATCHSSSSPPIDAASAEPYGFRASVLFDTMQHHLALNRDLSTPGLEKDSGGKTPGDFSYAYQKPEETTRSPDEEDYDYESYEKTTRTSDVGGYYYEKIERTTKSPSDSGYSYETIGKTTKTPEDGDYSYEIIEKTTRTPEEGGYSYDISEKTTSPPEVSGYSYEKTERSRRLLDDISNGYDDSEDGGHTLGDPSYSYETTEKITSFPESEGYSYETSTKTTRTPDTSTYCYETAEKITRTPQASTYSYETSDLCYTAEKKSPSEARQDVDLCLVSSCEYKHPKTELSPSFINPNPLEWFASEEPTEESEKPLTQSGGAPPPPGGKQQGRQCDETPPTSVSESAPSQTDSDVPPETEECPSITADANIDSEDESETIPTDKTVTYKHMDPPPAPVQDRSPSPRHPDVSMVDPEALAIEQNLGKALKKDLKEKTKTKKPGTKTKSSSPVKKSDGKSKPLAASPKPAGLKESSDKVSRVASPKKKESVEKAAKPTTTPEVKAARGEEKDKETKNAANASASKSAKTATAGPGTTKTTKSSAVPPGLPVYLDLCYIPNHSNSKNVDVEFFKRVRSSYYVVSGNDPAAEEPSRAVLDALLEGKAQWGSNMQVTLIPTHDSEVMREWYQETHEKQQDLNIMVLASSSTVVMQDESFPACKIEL
UniProt Q8IV50: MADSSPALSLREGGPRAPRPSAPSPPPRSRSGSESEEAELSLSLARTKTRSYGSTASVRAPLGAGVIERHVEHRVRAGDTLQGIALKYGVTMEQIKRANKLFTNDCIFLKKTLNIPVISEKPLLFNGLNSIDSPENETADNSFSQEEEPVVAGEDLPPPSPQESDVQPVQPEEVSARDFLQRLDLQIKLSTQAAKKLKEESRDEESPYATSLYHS
UniProt Q9NZL9, whole entry, looked up: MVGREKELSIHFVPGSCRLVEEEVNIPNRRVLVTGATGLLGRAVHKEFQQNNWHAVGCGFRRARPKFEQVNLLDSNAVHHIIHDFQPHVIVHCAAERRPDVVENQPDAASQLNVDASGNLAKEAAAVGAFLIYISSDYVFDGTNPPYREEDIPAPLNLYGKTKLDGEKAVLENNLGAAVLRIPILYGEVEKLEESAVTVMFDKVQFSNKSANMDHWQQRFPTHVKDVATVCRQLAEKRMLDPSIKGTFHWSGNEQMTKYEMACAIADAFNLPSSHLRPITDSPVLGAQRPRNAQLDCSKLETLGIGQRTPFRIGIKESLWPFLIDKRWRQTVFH
UniProt Q96S90: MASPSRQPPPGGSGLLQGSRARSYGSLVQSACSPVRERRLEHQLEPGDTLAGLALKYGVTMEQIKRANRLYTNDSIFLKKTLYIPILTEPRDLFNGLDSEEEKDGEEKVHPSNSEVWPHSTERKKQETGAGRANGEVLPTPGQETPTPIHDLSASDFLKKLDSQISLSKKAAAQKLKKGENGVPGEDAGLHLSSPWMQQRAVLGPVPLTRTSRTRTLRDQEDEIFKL
UniProt P46734: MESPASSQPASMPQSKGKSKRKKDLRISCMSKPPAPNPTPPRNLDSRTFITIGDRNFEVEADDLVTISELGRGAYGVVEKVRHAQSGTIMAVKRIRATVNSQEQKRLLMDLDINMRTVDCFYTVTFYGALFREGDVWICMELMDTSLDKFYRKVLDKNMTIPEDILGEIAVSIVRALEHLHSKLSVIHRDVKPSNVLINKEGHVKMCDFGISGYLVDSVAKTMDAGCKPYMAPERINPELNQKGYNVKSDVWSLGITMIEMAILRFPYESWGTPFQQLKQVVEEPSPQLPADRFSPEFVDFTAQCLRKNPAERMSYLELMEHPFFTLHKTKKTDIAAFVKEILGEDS

Compound: C1CN(CCC1(CC2=CC=C(C=C2)Cl)N)C3=NC=NC4=C3C=CN4
Assay: log2 fold change, soluble protein after heating vs DMSO (PISA); higher = thermal stabilisation; K562 lysate, 10 uM; active = over 0.2 and 3.5 SD of the protein, either way, in both replicates (recomputed)
Method in brief: (§1)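 A 30 min treatment with 10 μM compound was applied to crude K562 extract at 1 mg/mL protein in PBS pH 7.4 with 1 mM MgCl2. Heating for 3 min spanned 48°C-58°C, after which aliquots were pooled, adjusted to 0.5% NP-40 at 4°C and spun at 21,000xg for 90 min. TMTpro 16plex LC-MS/MS of the supernatant, with channel sums equalised, gave values recorded as log-two fold change in thermal stability against solvent controls, from duplicates.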

log2 fold change, inactive:
MARK1 (UniProt Q9P0L2) -0.111
LUC7L2 (UniProt Q9Y383) -0.024
MAP2K1 (UniProt Q02750) 0.077
MAP4 isoform 5 (UniProt P27816) 0.026
MAML2 (UniProt Q8IZL2) 0.024
MAGEB1 (UniProt P43366) -0.044
MAP3K7 (UniProt O43318) 0.022
MAP7D3 (UniProt Q8IWC1) -0.012
MARCKS (UniProt P29966) 0.082
MAPKAPK3 (UniProt Q16644) -0.052
LTF (UniProt P02788) -0.037
MAPKAPK5 (UniProt Q8IW41) 0.031
LUC7L3 (UniProt O95232) 0.044
MAGT1 (UniProt Q9H0U3) -0.006
LTV1 (UniProt Q96GA3) 0.014
LYZ (UniProt P61626) -0.098
MAPK8 isoform 3 (UniProt P45983) 0

Compound: C1COCCN1CCN2C3=CC=CC=C3N=C2NC(=O)C4=CC(=CC=C4)[N+](=O)[O-] [IRAK-1-4 Inhibitor I]
Assay: as above
Method in brief: as §1

log2 fold change, inactive:
MAD2L1BP isoform 3 (UniProt Q15013) -0.002
LTN1 isoform 3 (UniProt O94822) 0.006
LYRM2 (UniProt Q9NU23) -0.054
LYSMD3 (UniProt Q7Z3D4) -0.01
MAP2K2 (UniProt P36507) 0
MAGEB2 (UniProt O15479) -0.03
MAF1 (UniProt Q9H063) -0.017
LYAR (UniProt Q9NX58) -0.018
MANBA (UniProt O00462) 0.028
MAP1B (UniProt P46821) 0.011
LYPLAL1 (UniProt Q5VWZ2) 0.019
MADD isoform 4 (UniProt Q8WXG6) 0.002
MAGEC1 (UniProt O60732) -0.001
MAGI3 isoform 1 (UniProt Q5TCQ9) -0.071
MAN1A2 (UniProt O60476) -0.032
LYSMD2 (UniProt Q8IV50) -0.014
MAGED2 (UniProt Q9UNF1) 0.086
MAPRE2 (UniProt Q15555) -0.036
MAP3K20 isoform 2 (UniProt Q9NYL2) 0.07
MAT2B (UniProt Q9NZL9) 0.017
LYSMD1 (UniProt Q96S90) 0.023
MAP2K3 isoform 3 (UniProt P46734) 0.03
MARK1 (UniProt Q9P0L2) -0.045
LUC7L2 (UniProt Q9Y383) -0.029
MAP2K1 (UniProt Q02750) 0.011
MAP4 isoform 5 (UniProt P27816) 0.112
MAML2 (UniProt Q8IZL2) 0.041
MAGEB1 (UniProt P43366) -0.013
MAP3K7 (UniProt O43318) 0.038
MAP7D3 (UniProt Q8IWC1) -0.017
MARCKS (UniProt P29966) 0.049
MAPKAPK3 (UniProt Q16644) -0.035
LTF (UniProt P02788) -0.322
MAPKAPK5 (UniProt Q8IW41) -0.049
LUC7L3 (UniProt O95232) -0.016
MAGT1 (UniProt Q9H0U3) 0.07
LTV1 (UniProt Q96GA3) -0.057
LYZ (UniProt P61626) -0.34
MAPK8 isoform 3 (UniProt P45983) -0.016
